Data taken from publication PMC11984722.
No constants are given. Whether binding was seen depends on the method and setting. In cells and extracts the contact can be indirect. Some results given as binding are weak or reduced against the parent protein; the word gives no strength. For some of these results: Where a sequence is shown, tags or fusion partners need not be part of it.

Sequences of proteins named here, by UniProt entry; tags and fusion partners are left off. Residues count along the entry.
UniProt Q15418: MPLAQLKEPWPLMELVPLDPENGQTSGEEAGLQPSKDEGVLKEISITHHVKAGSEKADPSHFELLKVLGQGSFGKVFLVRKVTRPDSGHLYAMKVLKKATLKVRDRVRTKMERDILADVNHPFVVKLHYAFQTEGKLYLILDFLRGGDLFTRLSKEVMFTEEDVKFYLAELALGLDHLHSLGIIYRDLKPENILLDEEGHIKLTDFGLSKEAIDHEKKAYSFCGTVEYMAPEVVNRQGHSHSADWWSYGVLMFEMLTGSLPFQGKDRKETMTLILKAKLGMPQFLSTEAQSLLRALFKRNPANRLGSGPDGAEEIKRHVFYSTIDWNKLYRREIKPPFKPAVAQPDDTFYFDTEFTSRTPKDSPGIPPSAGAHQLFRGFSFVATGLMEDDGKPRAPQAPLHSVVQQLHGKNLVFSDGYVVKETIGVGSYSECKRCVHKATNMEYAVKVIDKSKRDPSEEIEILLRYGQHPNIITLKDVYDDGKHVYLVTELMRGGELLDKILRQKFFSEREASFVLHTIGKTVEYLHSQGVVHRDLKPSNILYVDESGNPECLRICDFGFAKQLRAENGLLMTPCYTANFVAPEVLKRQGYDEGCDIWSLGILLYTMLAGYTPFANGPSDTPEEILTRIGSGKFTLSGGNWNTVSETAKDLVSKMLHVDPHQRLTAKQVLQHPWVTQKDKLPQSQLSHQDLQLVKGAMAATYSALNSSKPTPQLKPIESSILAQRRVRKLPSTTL
UniProt Q7Z698: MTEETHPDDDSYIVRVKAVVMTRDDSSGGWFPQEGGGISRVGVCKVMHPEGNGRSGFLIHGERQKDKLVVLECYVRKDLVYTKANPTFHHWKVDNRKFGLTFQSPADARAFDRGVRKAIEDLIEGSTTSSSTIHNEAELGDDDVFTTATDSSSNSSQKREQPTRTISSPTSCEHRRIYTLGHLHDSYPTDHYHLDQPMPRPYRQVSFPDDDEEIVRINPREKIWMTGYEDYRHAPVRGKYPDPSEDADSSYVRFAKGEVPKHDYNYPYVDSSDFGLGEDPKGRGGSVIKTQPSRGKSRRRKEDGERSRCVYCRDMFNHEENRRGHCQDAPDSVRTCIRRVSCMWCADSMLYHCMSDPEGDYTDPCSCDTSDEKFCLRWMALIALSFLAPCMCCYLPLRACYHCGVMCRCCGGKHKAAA
UniProt Q8WXI2: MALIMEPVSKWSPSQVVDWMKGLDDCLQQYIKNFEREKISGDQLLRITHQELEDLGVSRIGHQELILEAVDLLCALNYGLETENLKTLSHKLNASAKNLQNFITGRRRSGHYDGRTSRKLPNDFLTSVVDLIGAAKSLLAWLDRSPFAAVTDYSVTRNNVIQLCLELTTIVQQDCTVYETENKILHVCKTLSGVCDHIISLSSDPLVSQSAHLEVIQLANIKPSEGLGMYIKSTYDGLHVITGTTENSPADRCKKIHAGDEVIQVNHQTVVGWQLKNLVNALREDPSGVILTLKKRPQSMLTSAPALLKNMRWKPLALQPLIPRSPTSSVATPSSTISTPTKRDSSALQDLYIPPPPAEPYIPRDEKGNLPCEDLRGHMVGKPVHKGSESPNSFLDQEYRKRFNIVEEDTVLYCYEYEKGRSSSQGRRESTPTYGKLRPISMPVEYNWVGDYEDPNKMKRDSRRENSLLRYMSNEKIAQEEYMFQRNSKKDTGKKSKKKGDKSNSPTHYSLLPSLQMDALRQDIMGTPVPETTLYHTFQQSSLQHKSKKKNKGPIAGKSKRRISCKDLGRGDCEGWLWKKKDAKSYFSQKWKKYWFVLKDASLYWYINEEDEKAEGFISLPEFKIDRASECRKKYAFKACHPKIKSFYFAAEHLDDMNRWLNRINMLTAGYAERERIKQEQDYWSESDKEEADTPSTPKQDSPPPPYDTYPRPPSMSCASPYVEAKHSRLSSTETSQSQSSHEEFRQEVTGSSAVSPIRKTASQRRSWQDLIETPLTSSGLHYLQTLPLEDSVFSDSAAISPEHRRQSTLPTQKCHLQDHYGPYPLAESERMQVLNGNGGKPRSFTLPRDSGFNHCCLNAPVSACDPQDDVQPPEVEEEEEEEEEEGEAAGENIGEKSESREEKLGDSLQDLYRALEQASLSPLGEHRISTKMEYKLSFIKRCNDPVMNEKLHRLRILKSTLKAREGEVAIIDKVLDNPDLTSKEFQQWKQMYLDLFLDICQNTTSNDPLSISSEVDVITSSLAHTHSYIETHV
UniProt P11362, residues 22-822: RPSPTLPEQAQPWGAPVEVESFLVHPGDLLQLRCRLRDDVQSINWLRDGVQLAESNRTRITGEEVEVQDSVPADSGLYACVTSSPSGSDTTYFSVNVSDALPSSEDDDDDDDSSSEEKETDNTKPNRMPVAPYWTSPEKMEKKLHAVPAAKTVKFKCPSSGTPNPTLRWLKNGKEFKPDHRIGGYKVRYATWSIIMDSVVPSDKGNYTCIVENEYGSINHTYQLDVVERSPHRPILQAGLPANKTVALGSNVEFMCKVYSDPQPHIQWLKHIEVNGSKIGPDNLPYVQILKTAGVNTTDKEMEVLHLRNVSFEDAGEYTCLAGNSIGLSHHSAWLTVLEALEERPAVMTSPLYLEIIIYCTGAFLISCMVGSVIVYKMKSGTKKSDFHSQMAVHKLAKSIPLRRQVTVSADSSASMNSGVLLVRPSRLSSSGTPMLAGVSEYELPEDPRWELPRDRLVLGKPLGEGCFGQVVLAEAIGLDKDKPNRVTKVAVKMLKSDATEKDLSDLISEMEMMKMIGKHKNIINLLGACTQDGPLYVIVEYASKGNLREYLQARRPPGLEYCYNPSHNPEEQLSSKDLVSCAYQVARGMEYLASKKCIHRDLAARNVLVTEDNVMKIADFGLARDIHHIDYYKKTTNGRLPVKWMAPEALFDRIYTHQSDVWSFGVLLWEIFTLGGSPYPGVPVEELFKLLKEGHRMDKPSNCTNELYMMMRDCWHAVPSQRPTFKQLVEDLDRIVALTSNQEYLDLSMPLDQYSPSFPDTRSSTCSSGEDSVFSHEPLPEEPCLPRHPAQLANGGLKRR

Experiments:
Assay in all cases: co-IP
[1] = target: FLAG-RSK1 wild type (KAKLGM), in HeLa (human) (UniProt Q15418)
[2] = target: T1, FLAG-GAB3 wild type (DDVF) (human) (UniProt Q8WWW8)
T1 sequence: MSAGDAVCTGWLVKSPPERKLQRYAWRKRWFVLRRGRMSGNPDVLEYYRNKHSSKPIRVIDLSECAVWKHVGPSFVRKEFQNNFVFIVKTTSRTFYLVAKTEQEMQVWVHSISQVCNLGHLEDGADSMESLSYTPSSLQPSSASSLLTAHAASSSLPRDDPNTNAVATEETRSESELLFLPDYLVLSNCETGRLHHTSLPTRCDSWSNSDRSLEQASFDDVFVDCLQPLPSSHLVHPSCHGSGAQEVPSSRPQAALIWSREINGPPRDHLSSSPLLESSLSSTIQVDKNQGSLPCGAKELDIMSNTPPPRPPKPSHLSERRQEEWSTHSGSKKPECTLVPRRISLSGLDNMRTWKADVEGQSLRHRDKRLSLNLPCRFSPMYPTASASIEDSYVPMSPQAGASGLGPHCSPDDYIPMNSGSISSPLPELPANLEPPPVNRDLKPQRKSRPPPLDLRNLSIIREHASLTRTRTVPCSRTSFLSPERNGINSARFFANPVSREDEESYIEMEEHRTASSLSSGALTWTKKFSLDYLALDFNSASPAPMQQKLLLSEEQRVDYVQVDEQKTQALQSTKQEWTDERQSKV

[3] = target: FLAG-SPRED2 wild type (DDVF), in HEK293T (human) (UniProt Q7Z698)
[4] = target: FLAG-CNKSR2 wild type (DSVF) (human) (UniProt Q8WXI2)

| binding [1] | binding [2] | binding [3] | binding [4] | Substance |
| --- | --- | --- | --- | --- |
| binds |  |  |  | HA-FGFR1 wild type (DSVF) (from UniProt P11362 22-822) (receptor) |
|  | binds | binds | binds | HA-RSK1 wild type (KAKLGM) (from UniProt Q15418 1-735) (enzyme) |
